The values that follow come from PMC7819943, “Rice protein-binding microarrays: a tool to detect cis-acting elements near promoter regions in rice”.

Protein sequences, listed by entry. Tags and fused reporters are not part of them.
UniProt Q0JBA9, entry or part of it: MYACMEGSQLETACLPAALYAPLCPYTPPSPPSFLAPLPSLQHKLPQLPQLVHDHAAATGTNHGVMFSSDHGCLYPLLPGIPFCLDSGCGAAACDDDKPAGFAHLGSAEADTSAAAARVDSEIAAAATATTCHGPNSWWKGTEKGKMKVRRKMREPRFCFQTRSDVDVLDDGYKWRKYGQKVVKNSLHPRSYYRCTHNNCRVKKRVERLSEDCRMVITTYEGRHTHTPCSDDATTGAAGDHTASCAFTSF

Some of the results follow.

The experiment addresses OsWRKY34 (Oryza sativa, UniProt Q0JBA9 1-250). Briefly: protein-binding microarray (RPBM); PBS, 2% BSA, 51.3 ng/ul salmon testes DNA, 50 uM zinc acetate, 200 nM TF, 25 C, 1 h; high values mean tight binding. The settings on record: protein: recombinant; tags: N-terminal polyhistidine and DsRed monomer fusion (pET32a); label: CyDye5-dUTP incorporated in the synthesized complementary strand; 3' TTTTT single-stranded linker to array surface; dsDNA, one strand shown. An outline of the steps: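 Using Ni–NTA, transcription factors fused N-terminally to polyhistidine and DsRed were purified after expression in E. coli BL21-CodonPlus. These were incubated at 200 nM with a blocked, double-stranded custom Agilent array for 1 h at 25 °C in a buffer containing 50 µM zinc acetate, and the array was washed. The binding signal is per-feature fluorescence intensity (arbitrary units) on an Axon 4000B scanner.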
Consider “TACACTAATCTATCTACTGGAGTACTTCAGCAACATTTTCCGGAGTCACCTAGTGCAG”, for which the binding signal is 9640 fluorescence intensity (a.u.).

As to “CGAAATCTCCGAACCATACCGCCATAATTCGCACGCACACCGGAGTCACCTAGTGCAG”, the binding signal is 8030 fluorescence intensity (a.u.).

As for “CCACAATTTTGACATGCCACATTTTCTACTCTTTTGGTCCCGGAGTCACCTAGTGCAG”, the binding signal was 8660 fluorescence intensity (a.u.). Next, “TGTCGTGGACTTGACTTTTTTTTTTAACGTGTGATGACTCCGGAGTCACCTAGTGCAG”: 10800 fluorescence intensity (a.u.). Next, “CCGCCGTCGCCGGCTCGCTCGCTCGCTGCCCATATATACGCGGAGTCACCTAGTGCAG”: 9960 fluorescence intensity (a.u.). Next, “CAGTTTCCATTCTTGTGATTAATATTATCTTTACTTCATTCGGAGTCACCTAGTGCAG”: 9390 fluorescence intensity (a.u.); “ATATTTTAATGAATGACACTGTTGACTTTTTGACAAACGTCGGAGTCACCTAGTGCAG”: 13300 fluorescence intensity (a.u.); “GGGCTGGTGGTGTTCAAGTCGGCGCTGTCGGACCCCTCCGCGGAGTCACCTAGTGCAG”: 9780 fluorescence intensity (a.u.). Regarding “TCCCCAAGCGCATCCAGGCCGCCCTCGTCTCCAAGGACGACGGAGTCACCTAGTGCAG”, the binding signal is 8260 fluorescence intensity (a.u.). Next, “CCAAGGTGCGCCACCGCCGCCGCCTGGCTTTGCAGTTCCTCGGAGTCACCTAGTGCAG”: 8700 fluorescence intensity (a.u.); “GCCTATTGATACCCCGTTCTTTCCTATGTTACCAGAGATACGGAGTCACCTAGTGCAG”: 9600 fluorescence intensity (a.u.).

As to “TCCGACACATCTGCCATTGGATGCTCCCTCTTTATCATGTCGGAGTCACCTAGTGCAG”, the binding signal was 8760 fluorescence intensity (a.u.). On to “TTATTTTTTCCCCACTTTGTTCCGTTTGTCTTCTACCTCCCGGAGTCACCTAGTGCAG”, for which the binding signal is 8370 fluorescence intensity (a.u.). For the sequence “TCGGCAGCTAGCTACTTATGTAGCCACTATAGTCCTAGGTCGGAGTCACCTAGTGCAG”, the binding signal is 9300 fluorescence intensity (a.u.). Next, “TTACATTGCACTTGTCGTATGCTATCTAGAATTACCATACCGGAGTCACCTAGTGCAG”: 8410 fluorescence intensity (a.u.); “TATCAAACTTTATTATCCCTTGCCGCTTCATTTTCCATCCCGGAGTCACCTAGTGCAG”: 10300 fluorescence intensity (a.u.). “ATCCAATCGATCCCGCGCTCTTATGTGTACCTTCATGTTCCGGAGTCACCTAGTGCAG”: the binding signal was 8670 fluorescence intensity (a.u.).

Take “GCTTTTCTTTTAGTCCCATATATCTAGCAATTACACACTTCGGAGTCACCTAGTGCAG”: the binding signal was 8230 fluorescence intensity (a.u.).

As for “CCCTCGCTCCGCCGTCTCCCCTCGCCGCCGTTCCCCTTCCCGGAGTCACCTAGTGCAG”, the binding signal is 8710 fluorescence intensity (a.u.). Next, “CTCCCACCTCGCGCCATCGGATTCCACCTTCCCAGGTCTCCGGAGTCACCTAGTGCAG”: 8260 fluorescence intensity (a.u.); “AGACATGTGCCATCTTTTCTGCTCTCCCGACTTGTCTAAGCGGAGTCACCTAGTGCAG”: 8520 fluorescence intensity (a.u.). As to “TGTTCTGCAAGTTCATAGTGCTTTTGGTTGTCGTTGTAGTCGGAGTCACCTAGTGCAG”, the binding signal was 9910 fluorescence intensity (a.u.). Next, “ACTTTTCCGTCGCATCGTTCCAATTTCAACCAAACTTTCACGGAGTCACCTAGTGCAG”: 10700 fluorescence intensity (a.u.); “GCTCTGTGCCGCACTCGCCGATTCTGCCCGCCTATTTTTTCGGAGTCACCTAGTGCAG”: 11400 fluorescence intensity (a.u.). Next, “CTCTCTCGTCTAATTTATACGGTCGAATCAAACGGTAATTCGGAGTCACCTAGTGCAG”: 8270 fluorescence intensity (a.u.); “CCCTCTCTCGCCTCGCCTCCTCGTCGTCTTCCTCGCCAACCGGAGTCACCTAGTGCAG”: 8250 fluorescence intensity (a.u.); “TTCGCACCACCTCGCCCAGCCGCCCACGCGCGCGGCTCTCCGGAGTCACCTAGTGCAG”: 8450 fluorescence intensity (a.u.). Next, “TTCTTTGTGGCCTTCTCGTCGCCATTCTTGGTTGGATTAGCGGAGTCACCTAGTGCAG”: 8050 fluorescence intensity (a.u.); “GGGGTCGAAATATCCGGTTTTGTGGTTTATGGTCGTGGATCGGAGTCACCTAGTGCAG”: 13000 fluorescence intensity (a.u.).

Turning to “CTCAGCGCCCGCATCCACCGCATCCATCGTATCCACCGCCCGGAGTCACCTAGTGCAG”, the binding signal was 9980 fluorescence intensity (a.u.). As to “GGAGTAGTATTTTGAGTCGCCGTCACCGTCGGCTCCCTCACGGAGTCACCTAGTGCAG”, the binding signal is 9080 fluorescence intensity (a.u.). As for “GTTGTATGGGCATTGTTAAATTTTTTAAGAAATTTTTATACGGAGTCACCTAGTGCAG”, the binding signal was 9100 fluorescence intensity (a.u.).

Consider “TCTTCCCTTCTCTCTCCAATCCAGCTCGTGGCAATCCGACCGGAGTCACCTAGTGCAG”, for which the binding signal was 9010 fluorescence intensity (a.u.). Next, “CACACTCACACAGTTCACACTCATATCATATCAACAACACCGGAGTCACCTAGTGCAG”: 8300 fluorescence intensity (a.u.).

In the case of “TCTCCTGACCTTTGCTTGTCTGTCCCTTCGCTTCAACTTCCGGAGTCACCTAGTGCAG”, the binding signal was 13700 fluorescence intensity (a.u.). Next, “TTTTTTTTTACTGACATGTCGGTCCCATGAGTGCCATGTACGGAGTCACCTAGTGCAG”: 8130 fluorescence intensity (a.u.).

As to “TCGTTTTGACTTTTTCGTAGTCGAAACTTTTTAAAGTTTGCGGAGTCACCTAGTGCAG”, the binding signal was 9100 fluorescence intensity (a.u.). As to “CCCGCTACGCACAGACTTGTCTCTTTTATCCATCGTATTACGGAGTCACCTAGTGCAG”, the binding signal is 8480 fluorescence intensity (a.u.).

With “CTCATGCTTTAGAGGCCTAGTTTTAATGACTATGTGTTTTCGGAGTCACCTAGTGCAG”, the binding signal was 11500 fluorescence intensity (a.u.). Next, “TCAGCCTTTTTTTATTTTTCTTATTGACCACTTCAGAATCCGGAGTCACCTAGTGCAG”: 9100 fluorescence intensity (a.u.); “CCGAGCCGAGGCCGGAATTTCCTTTTTGGTGCGACGACGACGGAGTCACCTAGTGCAG”: 11000 fluorescence intensity (a.u.); “AACAGTGTTCTACGGTTCTACCGAACCCATTCATCACCTTCGGAGTCACCTAGTGCAG”: 9160 fluorescence intensity (a.u.). On to “AGCTCCCATGCATGTCCATTCCATCTCCAAAAGTAACCACCGGAGTCACCTAGTGCAG”, for which the binding signal was 8100 fluorescence intensity (a.u.). Next, “ATCACCTACCCCTGGTCGACAACTTTTTAACGCTCATTGACGGAGTCACCTAGTGCAG”: 14400 fluorescence intensity (a.u.). Next, “GATAATTACAGCCTGACGTGACCCTGCTTGTTTCTTTAATCGGAGTCACCTAGTGCAG”: 13000 fluorescence intensity (a.u.). Next, “CTTCGAAAATTGTATTCGAACACCATCTCAACATTAGCATCGGAGTCACCTAGTGCAG”: 8600 fluorescence intensity (a.u.). Turning to “CGATCACGACTTTTCTCACGTGCACCTATCATTAATTAATCGGAGTCACCTAGTGCAG”, the binding signal was 11700 fluorescence intensity (a.u.). Next, “GGTGCCAGTGTCCGTCTCCTCCTACGCCATCGACGCCGCCCGGAGTCACCTAGTGCAG”: 8150 fluorescence intensity (a.u.). Next, “CCACTCACTTCTAACTACTTTGTTAATAATCGTGTCCAACCGGAGTCACCTAGTGCAG”: 8880 fluorescence intensity (a.u.).

As to “CCTCACTTCTCTTTCCTTCCCTCTCCATTCTCTCTTCTCTCGGAGTCACCTAGTGCAG”, the binding signal is 8940 fluorescence intensity (a.u.).

Turning to “CAACCTCGCAAACACCGATACCCACATGCCAGTTCGCAACCGGAGTCACCTAGTGCAG”, the binding signal is 8030 fluorescence intensity (a.u.). Next, “TCACTGCACTCTTCCTCTGCACACACGTTTCAGTCTCTCACGGAGTCACCTAGTGCAG”: 9420 fluorescence intensity (a.u.); “AAGGTGTTTGGTTGATTTTTGTTATGTACAATTTTTTGGTCGGAGTCACCTAGTGCAG”: 8680 fluorescence intensity (a.u.); “GTACACCACTCCTCTGTCTATTTAATCACAAGCAAATCAACGGAGTCACCTAGTGCAG”: 8080 fluorescence intensity (a.u.).
